Results are given in words; binding and its absence hold for the method and conditions named. Binding seen in cells or lysates may run through a third protein. Some entries that bind do so weakly or less than the wild type. For some of these results: Tags and fused reporters may be left off the sequences shown.
Legend:
Assay in all cases: co-IP; 293 T cells co-transfected with SAMHD1 and a V5-tagged PIAS protein or PIAS1 truncation mutant; harvested 48 h after transfection, lysed in RIPA buffer (50 mM Tris-HCl, 150 mM NaCl, 1% NP40, 1% deoxycholate, 0.1% SDS, 1 mM EDTA); PIAS precipitated, SAMHD1 detected by WB
V5-tagged PIAS2 = V5-tagged PIAS2 (UniProt O75928)
V5-tagged PIAS3 = molecular target: T1, V5-tagged PIAS3 (UniProt Q9Y6X2)
T1 sequence: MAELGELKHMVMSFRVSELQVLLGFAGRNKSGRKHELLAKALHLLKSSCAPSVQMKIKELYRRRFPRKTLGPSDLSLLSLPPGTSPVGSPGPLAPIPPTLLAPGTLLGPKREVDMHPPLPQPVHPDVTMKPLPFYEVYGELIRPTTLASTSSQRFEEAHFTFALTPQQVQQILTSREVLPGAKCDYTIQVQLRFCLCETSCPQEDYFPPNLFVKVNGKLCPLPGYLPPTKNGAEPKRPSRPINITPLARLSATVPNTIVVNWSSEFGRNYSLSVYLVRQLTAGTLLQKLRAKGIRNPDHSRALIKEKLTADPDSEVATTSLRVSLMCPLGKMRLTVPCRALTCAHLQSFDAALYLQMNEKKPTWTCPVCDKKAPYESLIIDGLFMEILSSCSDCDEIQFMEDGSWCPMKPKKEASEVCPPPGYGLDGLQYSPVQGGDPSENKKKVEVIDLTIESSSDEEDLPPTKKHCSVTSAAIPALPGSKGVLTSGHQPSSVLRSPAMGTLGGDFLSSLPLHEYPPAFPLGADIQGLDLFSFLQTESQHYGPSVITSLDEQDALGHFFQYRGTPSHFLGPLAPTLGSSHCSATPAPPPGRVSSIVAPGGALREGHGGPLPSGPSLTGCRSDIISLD

Protein sequences, listed by entry. Tags and fused reporters are not part of them.
UniProt O75928: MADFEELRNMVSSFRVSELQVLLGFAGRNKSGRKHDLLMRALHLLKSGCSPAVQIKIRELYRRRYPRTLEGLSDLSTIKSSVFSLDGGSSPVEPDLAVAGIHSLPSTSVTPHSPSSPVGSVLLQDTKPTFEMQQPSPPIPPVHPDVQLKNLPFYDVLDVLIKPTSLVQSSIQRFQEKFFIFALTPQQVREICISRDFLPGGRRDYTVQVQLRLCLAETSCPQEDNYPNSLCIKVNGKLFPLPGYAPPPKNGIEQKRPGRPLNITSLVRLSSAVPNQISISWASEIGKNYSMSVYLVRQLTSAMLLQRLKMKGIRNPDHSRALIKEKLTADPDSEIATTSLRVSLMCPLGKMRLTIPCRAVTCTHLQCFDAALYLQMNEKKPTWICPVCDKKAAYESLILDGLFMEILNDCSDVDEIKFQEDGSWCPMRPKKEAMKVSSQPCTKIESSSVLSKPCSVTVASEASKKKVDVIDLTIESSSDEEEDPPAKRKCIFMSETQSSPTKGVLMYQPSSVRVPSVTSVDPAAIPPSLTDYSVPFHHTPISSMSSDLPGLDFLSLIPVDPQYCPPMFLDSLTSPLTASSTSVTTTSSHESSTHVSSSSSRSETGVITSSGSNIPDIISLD
UniProt O75925: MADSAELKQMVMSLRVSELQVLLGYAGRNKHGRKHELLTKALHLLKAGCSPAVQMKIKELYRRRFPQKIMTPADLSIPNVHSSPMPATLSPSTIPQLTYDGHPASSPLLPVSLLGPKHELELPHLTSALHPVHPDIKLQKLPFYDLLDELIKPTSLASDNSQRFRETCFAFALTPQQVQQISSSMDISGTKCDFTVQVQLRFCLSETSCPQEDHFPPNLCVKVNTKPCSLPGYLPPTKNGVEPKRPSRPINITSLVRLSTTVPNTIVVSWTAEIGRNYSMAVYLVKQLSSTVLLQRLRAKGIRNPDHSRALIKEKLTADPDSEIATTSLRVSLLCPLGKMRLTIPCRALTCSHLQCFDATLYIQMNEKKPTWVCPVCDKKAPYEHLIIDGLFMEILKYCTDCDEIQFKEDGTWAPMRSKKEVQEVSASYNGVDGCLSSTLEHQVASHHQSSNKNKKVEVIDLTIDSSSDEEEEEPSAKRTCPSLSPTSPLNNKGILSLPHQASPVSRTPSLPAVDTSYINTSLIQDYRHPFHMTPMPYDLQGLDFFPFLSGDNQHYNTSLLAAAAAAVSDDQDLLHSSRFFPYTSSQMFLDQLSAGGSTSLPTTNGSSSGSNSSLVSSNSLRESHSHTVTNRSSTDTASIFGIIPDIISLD
UniProt Q9Y3Z3: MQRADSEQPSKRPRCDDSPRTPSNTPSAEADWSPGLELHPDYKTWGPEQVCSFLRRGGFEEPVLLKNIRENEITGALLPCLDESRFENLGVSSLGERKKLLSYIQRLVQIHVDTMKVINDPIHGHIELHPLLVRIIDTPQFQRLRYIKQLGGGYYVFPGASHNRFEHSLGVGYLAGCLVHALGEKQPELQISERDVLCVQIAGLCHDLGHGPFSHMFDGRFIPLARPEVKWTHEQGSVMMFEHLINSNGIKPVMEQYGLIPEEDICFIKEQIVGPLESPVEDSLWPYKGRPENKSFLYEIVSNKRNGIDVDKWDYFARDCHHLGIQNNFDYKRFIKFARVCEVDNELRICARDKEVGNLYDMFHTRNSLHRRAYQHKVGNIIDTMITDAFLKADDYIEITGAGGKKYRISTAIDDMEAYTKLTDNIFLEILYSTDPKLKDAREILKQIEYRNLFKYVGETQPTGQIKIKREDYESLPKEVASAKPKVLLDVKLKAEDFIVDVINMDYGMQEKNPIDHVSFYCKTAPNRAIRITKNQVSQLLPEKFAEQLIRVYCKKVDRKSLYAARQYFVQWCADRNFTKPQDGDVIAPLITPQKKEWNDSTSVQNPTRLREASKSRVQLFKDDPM

V5-tagged PIAS4 = molecular target: T2, V5-tagged PIAS4 (UniProt Q8N2W9)
T2 sequence: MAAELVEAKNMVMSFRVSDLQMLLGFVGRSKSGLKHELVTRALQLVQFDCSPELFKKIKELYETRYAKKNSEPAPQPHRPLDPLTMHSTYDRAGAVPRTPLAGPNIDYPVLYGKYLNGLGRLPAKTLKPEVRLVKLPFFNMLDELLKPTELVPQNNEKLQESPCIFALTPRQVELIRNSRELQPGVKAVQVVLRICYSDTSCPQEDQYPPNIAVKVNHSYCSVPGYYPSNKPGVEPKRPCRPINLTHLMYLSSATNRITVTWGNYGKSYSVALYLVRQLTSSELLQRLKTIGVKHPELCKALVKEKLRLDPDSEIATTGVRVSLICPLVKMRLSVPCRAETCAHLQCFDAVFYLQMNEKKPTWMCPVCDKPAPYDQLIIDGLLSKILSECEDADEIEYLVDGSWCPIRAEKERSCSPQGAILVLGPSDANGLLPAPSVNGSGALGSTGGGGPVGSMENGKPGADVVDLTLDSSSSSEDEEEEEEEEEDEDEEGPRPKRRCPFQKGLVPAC

[1] = molecular target: V5-tagged full length PIAS1 (aa 1-651) (UniProt O75925)

Measured: binding

Sterile alpha motif and HD domain 1 (SAMHD1), transfected (from UniProt Q9Y3Z3 1-626)
binds: all assays above
